Reference: the supplement of paper PMC10849652
This is one part of the list. Residues, ends and D or L forms follow the SMILES beside them. *: point of attachment. Cbz = O=C(OCc1ccccc1)*

The chains behind the UniProt entries cited, without tags or fusion partners. Where a name states a change or a piece, a line headed by the entry shows the natural chain unless it says otherwise.
UniProt Q9Y6W5, whole entry, looked up: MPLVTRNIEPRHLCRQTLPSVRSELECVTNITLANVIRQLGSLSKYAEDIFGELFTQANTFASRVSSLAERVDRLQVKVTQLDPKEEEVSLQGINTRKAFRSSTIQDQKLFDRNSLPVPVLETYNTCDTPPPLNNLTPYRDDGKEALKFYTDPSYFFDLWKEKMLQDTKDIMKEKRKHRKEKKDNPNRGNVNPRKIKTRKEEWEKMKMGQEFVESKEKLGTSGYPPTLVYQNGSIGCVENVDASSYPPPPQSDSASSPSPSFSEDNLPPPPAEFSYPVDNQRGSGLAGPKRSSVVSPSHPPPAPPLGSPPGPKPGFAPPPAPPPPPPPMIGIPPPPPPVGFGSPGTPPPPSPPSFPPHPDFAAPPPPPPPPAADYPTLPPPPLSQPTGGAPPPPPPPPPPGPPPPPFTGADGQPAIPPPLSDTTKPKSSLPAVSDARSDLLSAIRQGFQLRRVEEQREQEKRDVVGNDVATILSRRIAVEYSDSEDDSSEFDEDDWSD
UniProt O95785: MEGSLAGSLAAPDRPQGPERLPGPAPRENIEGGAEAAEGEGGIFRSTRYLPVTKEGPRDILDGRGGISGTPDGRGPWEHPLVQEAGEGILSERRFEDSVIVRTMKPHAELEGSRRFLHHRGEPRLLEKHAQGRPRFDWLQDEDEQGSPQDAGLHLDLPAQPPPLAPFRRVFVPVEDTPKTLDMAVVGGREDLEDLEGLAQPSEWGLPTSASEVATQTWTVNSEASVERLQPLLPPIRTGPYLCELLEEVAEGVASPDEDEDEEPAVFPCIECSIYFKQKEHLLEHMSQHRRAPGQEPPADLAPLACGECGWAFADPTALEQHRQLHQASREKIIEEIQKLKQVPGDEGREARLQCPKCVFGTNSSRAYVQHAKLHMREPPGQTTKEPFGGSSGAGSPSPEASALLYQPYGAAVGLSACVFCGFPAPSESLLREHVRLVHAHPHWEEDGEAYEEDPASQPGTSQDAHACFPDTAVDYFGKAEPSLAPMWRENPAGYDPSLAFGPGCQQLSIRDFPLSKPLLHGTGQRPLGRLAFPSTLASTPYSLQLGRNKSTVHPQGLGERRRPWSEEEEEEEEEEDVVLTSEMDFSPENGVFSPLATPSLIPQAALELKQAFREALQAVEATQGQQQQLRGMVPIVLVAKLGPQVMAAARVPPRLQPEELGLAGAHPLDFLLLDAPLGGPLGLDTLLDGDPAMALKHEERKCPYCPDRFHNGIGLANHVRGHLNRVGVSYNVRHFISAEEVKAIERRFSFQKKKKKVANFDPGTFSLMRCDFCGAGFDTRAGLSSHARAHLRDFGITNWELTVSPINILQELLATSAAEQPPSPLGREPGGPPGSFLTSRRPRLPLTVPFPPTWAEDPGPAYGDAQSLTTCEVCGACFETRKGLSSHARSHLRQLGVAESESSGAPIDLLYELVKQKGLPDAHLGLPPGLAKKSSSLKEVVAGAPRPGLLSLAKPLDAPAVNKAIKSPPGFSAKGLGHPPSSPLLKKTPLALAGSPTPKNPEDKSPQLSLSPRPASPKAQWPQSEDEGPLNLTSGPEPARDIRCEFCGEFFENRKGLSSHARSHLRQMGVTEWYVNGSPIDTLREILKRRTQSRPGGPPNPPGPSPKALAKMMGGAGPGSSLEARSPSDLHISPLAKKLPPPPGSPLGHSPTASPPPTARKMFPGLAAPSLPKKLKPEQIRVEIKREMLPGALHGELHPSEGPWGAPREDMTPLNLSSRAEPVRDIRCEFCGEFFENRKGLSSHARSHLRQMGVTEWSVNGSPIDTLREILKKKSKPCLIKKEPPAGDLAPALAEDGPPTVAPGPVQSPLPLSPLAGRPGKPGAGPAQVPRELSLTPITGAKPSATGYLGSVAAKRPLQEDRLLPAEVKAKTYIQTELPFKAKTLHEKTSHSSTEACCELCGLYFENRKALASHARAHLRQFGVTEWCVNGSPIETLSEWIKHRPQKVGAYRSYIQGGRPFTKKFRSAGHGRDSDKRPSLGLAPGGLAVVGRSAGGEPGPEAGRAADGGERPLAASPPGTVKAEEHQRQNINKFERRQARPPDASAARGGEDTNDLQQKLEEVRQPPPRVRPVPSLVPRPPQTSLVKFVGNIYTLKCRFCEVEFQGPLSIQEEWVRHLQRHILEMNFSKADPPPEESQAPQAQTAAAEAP
UniProt Q96AX1: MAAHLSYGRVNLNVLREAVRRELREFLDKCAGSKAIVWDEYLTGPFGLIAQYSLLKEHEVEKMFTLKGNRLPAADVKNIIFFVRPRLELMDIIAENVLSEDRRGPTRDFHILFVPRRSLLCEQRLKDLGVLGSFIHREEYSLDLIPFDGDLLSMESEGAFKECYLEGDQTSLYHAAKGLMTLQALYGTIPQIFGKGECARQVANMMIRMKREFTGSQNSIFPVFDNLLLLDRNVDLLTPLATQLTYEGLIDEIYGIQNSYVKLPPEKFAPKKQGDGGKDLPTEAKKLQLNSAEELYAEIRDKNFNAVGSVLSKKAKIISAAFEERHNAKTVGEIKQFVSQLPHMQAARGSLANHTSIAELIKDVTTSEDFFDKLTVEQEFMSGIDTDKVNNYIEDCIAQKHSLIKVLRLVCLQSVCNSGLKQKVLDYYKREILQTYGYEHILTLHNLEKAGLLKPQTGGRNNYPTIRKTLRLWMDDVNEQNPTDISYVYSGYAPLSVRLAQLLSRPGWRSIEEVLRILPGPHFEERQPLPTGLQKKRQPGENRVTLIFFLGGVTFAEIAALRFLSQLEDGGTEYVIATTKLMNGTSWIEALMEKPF
UniProt O75554: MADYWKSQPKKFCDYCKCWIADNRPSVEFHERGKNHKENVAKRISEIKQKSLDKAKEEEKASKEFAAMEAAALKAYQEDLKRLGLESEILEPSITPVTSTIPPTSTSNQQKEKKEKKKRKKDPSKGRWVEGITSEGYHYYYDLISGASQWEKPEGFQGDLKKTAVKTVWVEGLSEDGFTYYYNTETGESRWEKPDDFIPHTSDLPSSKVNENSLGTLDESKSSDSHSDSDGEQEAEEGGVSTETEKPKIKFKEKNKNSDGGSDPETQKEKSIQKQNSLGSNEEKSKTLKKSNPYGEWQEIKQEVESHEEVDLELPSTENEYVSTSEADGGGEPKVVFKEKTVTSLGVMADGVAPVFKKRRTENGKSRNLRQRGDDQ
UniProt O94967: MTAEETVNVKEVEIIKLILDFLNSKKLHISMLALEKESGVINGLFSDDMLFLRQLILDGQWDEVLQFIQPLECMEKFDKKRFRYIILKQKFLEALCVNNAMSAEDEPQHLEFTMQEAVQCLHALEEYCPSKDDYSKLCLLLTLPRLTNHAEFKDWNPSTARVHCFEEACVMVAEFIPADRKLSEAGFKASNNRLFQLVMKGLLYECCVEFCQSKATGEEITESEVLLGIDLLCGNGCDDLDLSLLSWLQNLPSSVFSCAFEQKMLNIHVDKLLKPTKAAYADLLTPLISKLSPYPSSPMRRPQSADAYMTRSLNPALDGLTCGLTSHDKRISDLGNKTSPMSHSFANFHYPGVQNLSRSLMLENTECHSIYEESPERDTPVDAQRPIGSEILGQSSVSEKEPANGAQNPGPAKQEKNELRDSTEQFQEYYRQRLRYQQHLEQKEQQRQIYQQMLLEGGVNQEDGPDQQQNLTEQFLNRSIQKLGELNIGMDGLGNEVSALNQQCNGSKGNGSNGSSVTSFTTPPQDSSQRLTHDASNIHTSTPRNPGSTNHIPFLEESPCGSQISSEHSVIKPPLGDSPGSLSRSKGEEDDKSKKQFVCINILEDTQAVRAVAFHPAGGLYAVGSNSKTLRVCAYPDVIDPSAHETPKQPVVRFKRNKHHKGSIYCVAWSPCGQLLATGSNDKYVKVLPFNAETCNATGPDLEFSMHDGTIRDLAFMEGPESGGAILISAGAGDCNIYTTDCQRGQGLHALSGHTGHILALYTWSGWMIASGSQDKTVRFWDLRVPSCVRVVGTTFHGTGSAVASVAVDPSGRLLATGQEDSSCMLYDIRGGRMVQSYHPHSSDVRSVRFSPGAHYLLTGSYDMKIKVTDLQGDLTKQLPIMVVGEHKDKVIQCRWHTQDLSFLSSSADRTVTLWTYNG
UniProt Q7Z5K2: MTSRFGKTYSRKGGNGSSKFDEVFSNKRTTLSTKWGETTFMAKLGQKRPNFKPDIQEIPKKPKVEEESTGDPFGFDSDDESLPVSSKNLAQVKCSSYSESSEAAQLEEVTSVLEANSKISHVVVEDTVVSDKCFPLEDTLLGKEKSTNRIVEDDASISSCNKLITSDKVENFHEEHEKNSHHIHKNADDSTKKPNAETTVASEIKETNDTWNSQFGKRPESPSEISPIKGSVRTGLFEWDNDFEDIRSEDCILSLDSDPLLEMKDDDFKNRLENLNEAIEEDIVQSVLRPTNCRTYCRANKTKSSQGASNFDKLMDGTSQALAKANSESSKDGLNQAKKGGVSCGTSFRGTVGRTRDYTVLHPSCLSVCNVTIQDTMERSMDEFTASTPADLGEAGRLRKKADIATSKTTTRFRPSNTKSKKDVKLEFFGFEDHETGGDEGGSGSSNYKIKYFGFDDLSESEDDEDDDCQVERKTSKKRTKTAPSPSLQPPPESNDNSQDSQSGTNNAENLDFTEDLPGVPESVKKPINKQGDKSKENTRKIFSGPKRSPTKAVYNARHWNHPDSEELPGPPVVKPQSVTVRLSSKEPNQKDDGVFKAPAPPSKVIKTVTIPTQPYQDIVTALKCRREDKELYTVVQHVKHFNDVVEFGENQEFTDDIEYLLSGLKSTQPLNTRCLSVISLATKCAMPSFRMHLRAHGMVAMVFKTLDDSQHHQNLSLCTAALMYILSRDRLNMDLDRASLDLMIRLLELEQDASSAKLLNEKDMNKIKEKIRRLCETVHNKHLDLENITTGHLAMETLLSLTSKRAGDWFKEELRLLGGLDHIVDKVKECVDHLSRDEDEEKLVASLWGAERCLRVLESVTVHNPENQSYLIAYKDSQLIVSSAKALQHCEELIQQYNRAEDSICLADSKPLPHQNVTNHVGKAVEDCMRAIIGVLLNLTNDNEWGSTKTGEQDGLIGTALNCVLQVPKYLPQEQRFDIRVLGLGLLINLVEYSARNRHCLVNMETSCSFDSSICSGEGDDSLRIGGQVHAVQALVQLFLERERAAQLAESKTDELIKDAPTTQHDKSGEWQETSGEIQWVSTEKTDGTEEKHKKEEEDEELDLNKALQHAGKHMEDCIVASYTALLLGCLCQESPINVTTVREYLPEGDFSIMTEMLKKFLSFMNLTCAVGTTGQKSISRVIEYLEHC
UniProt Q9BZH6: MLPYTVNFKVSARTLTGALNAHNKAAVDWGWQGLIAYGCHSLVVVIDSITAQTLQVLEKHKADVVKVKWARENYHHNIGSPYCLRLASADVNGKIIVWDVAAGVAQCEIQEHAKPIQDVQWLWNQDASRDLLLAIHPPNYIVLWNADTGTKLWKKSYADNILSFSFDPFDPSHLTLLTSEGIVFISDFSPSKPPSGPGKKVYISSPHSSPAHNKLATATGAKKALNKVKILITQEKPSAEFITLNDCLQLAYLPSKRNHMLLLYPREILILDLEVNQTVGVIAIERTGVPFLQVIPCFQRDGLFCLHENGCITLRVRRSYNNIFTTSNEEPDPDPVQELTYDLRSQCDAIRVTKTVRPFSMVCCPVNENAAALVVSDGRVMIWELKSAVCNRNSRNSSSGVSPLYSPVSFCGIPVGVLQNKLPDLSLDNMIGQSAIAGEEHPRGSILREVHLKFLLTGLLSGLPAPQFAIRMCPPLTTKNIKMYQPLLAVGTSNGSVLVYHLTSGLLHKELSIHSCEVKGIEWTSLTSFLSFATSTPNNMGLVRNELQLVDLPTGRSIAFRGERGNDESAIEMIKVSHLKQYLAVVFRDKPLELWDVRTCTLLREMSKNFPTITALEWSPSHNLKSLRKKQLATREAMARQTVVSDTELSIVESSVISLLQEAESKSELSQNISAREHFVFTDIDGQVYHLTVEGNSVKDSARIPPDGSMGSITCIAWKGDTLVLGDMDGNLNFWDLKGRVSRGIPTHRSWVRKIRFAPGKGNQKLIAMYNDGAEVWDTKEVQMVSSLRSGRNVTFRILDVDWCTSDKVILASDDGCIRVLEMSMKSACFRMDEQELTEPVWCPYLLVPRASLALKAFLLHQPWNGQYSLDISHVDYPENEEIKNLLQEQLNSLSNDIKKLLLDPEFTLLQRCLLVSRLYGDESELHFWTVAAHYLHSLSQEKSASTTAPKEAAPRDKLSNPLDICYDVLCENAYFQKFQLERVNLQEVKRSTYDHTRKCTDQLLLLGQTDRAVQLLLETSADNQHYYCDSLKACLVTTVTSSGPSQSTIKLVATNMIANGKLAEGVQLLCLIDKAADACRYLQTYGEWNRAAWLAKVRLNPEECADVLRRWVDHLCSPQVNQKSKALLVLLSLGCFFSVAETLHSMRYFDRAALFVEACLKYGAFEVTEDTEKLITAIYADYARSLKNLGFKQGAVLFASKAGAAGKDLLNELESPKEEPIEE

Key:
Assay in all cases: log2 fold change, soluble protein after heating vs DMSO (PISA); higher = thermal stabilisation; K562 cells, 10 uM, 30 min; active = over 0.2 and 3.5 SD of the protein, either way, in both replicates (recomputed)
IRAK-1-4 Inhibitor I = compound: C1COCCN1CCN2C3=CC=CC=C3N=C2NC(=O)C4=CC(=CC=C4)[N+](=O)[O-] [IRAK-1-4 Inhibitor I]
How it was run: (§1)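 Soluble protein was defined as the supernatant after 21,000xg for 90 min. It came from K562 cells at 2×10^6 cells/mL given 10 μM compound for 30 min, heated in aliquots for 3 min across 48°C-58°C, pooled, and extracted in PBS with 0.5% NP-40 at 4°C, and was quantified by TMTpro 16plex LC-MS/MS with equalised channel sums. Thermal stability against control samples, from duplicates, is reported as log2 fold change.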

ibrutinib = compound: C=CC(=O)N1CCC[C@@H](n2nc(-c3ccc(Oc4ccccc4)cc3)c3c(N)ncnc32)C1 [ibrutinib]
How it was run: as §1

[1] = compound: CC(=O)c1cnc2ccc(-c3cc(Cl)c(O)c(Cl)c3)nc2c1N[C@H]1CC[C@H](CN(C)C)CC1
How it was run: as §1

ralimetinib = compound: CC(C)(C)Cn1c(N)nc2ccc(-c3[nH]c(C(C)(C)C)nc3-c3ccc(F)cc3)nc21 [ralimetinib]
How it was run: as §1

[2] = compound: CC(C)(O)CC(=O)NCCn1ccc2ncnc(Nc3ccc(Oc4cccc(C(F)(F)F)c4)c(Cl)c3)c21
How it was run: as §1

[3] = compound: CC(C)C1=C2N=C(C=C(N2N=C1)NCC3=CC=CC=C3)NCCCCCCN
How it was run: as §1

[4] = compound: CC(C)C[C@@H](C=O)NC(=O)[C@H](CC(C)C)NC(=O)[C@H](CC(C)C)NC(=O)OCc1ccccc1
How it was run: as §1

pinometostat = compound: CC(C)N(C[C@H]1O[C@@H](n2cnc3c(N)ncnc32)[C@H](O)[C@@H]1O)[C@H]1C[C@@H](CCc2nc3cc(C(C)(C)C)ccc3[nH]2)C1 [pinometostat]
How it was run: as §1

[5] = compound: CC1=C(C(CC(=O)N1)C2=CC=C(C=C2)C(F)(F)F)C(=O)NC3=C(C=C4C(=C3)C=NN4)F
How it was run: as §1

[6] = compound: CC1=C(C2=C(C=C1)C(=O)C3=CC=CC=C3N2CCCN)C
How it was run: as §1

Measured: log2 fold change

WASF2 (UniProt Q9Y6W5)
inactive: IRAK-1-4 Inhibitor I 0.034 | ibrutinib -0.025 | [1] -0.026 | ralimetinib -0.012 | [2] 0.008 | [3] -0.023 | [4] 0.088 | pinometostat -0.023 | [5] 0.042 | [6] -0.082

WIPF3 (UniProt A6NGB9)
inactive: IRAK-1-4 Inhibitor I 0.064 | ibrutinib -0.051 | [1] 0.111 | ralimetinib -0.047 | [2] 0.046 | [3] 0.076 | [4] 0.107 | pinometostat 0.001 | [5] -0.022 | [6] 0.049

WIZ isoform 3 (UniProt O95785)
inactive: IRAK-1-4 Inhibitor I -0.044 | ibrutinib -0.075 | [1] -0.043 | ralimetinib 0.023 | [2] -0.011 | [3] -0.031 | [4] 0.005 | pinometostat 0.027 | [5] 0.061 | [6] 0.039

WDR43 (UniProt Q15061)
inactive: IRAK-1-4 Inhibitor I 0.023 | ibrutinib 0.019 | [1] 0.012 | ralimetinib -0.088 | [2] -0.003 | [3] 0.199 | [4] -0.039 | pinometostat -0.035
active: [6] 0.222

WASHC2A (UniProt Q641Q2)
active: [3] -0.266
inactive: IRAK-1-4 Inhibitor I -0.002 | ibrutinib -0.013 | [1] 0.054 | ralimetinib 0.013 | [2] 0.047 | [4] 0.025 | pinometostat 0.033 | [6] -0.044

VPS33A (UniProt Q96AX1)
active: [3] -0.299
inactive: IRAK-1-4 Inhibitor I -0.017 | ibrutinib -0.021 | [1] -0.001 | ralimetinib 0.048 | [2] -0.065 | [4] 0.054 | pinometostat 0.099 | [6] 0.005

VWA8 (UniProt A3KMH1)
inactive: IRAK-1-4 Inhibitor I 0.022 | ibrutinib -0.015 | [1] -0.041 | ralimetinib 0.016 | [2] -0.115 | [3] -0.149 | [4] -0.032 | pinometostat -0.004 | [6] 0.021

WBP4 (UniProt O75554)
inactive: IRAK-1-4 Inhibitor I 0.082 | ibrutinib -0.001 | [1] 0.033 | ralimetinib -0.057 | [2] -0.001 | [3] 0.098 | [4] 0.041 | pinometostat -0.06 | [6] 0.02

VPS8 (UniProt Q8N3P4)
inactive: IRAK-1-4 Inhibitor I -0.085 | ibrutinib -0.117 | [1] -0.004 | ralimetinib 0.088 | [2] -0.079 | [3] -0.254 | [4] 0.052 | pinometostat 0.039 | [6] 0.015

WDR47 (UniProt O94967)
inactive: IRAK-1-4 Inhibitor I -0.089 | ibrutinib 0.055 | [1] 0.028 | ralimetinib -0.005 | [2] -0.03 | [3] 0.028 | [4] -0.048 | pinometostat -0.017 | [6] 0.015

WDR41 (UniProt Q9HAD4)
active: [3] -0.271
inactive: IRAK-1-4 Inhibitor I -0.024 | ibrutinib -0.022 | [1] -0.023 | ralimetinib -0.036 | [2] -0.077 | [4] -0.026 | pinometostat 0.012 | [6] -0.001

WAPL isoform 3 (UniProt Q7Z5K2)
inactive: IRAK-1-4 Inhibitor I -0.086 | ibrutinib -0.002 | [1] -0.05 | ralimetinib -0.072 | [2] -0.057 | [3] -0.339 | [4] 0.125 | pinometostat 0.054 | [6] -0.056

WDCP (UniProt Q9H6R7)
inactive: IRAK-1-4 Inhibitor I -0.01 | ibrutinib -0.038 | [1] 0.078 | ralimetinib -0.006 | [2] -0.053 | [3] 0.032 | [4] 0.014 | pinometostat 0.076 | [6] 0.023

VPS13B (UniProt Q7Z7G8)
active: [3] -0.241
inactive: IRAK-1-4 Inhibitor I 0.05 | ibrutinib -0.013 | [1] -0.016 | ralimetinib -0.042 | [2] -0.06 | [4] 0.121 | pinometostat 0.007 | [6] 0.015

WRB (UniProt O00258)
inactive: IRAK-1-4 Inhibitor I 0.006 | ibrutinib 0.014 | [1] -0.074 | ralimetinib 0.004 | [2] 0.015 | [3] 0.043 | [4] -0.043 | pinometostat -0.032 | [6] 0.011

VRK2 (UniProt Q86Y07)
inactive: IRAK-1-4 Inhibitor I 0.004 | ibrutinib 0.003 | ralimetinib 0.21 | [2] -0.088 | [3] 0.027 | [4] 0.074 | pinometostat 0.075 | [6] 0.109
active: [1] 0.32

VTI1A (UniProt Q96AJ9)
inactive: IRAK-1-4 Inhibitor I 0.095 | ibrutinib 0.012 | [1] -0.009 | ralimetinib -0.111 | [2] 0.019 | [3] 0.005 | [4] 0.028 | pinometostat -0.016 | [6] -0.01

VPS11 (UniProt Q9H270)
inactive: IRAK-1-4 Inhibitor I 0.115 | ibrutinib -0.038 | [1] -0.032 | ralimetinib 0.038 | [2] -0.069 | [4] 0.062 | pinometostat 0.011 | [6] 0.031
active: [3] -0.375

VPS16 (UniProt Q9H269)
inactive: IRAK-1-4 Inhibitor I 0.028 | ibrutinib -0.073 | [1] -0.02 | ralimetinib 0.043 | [2] -0.154 | [3] -0.29 | [4] -0.035 | pinometostat 0.1 | [6] 0.061

WASHC3 (UniProt Q9Y3C0)
inactive: IRAK-1-4 Inhibitor I 0.096 | ibrutinib 0.015 | [1] 0.023 | ralimetinib -0.033 | [2] 0.024 | [3] -0.166 | [4] -0.041 | pinometostat -0.074 | [6] 0.032

VTA1 (UniProt Q9NP79)
inactive: IRAK-1-4 Inhibitor I -0.02 | ibrutinib -0.001 | [1] -0.013 | ralimetinib -0.009 | [2] -0.074 | [3] -0.12 | [4] -0.007 | pinometostat -0.041 | [6] 0.068

WNK1 isoform 7 (UniProt Q9H4A3)
active: [4] 0.476
inactive: IRAK-1-4 Inhibitor I 0.015 | ibrutinib 0.01 | [1] -0.213 | ralimetinib -0.045 | [2] 0.017 | [3] -0.005 | pinometostat 0.004 | [6] 0.027

VPS53 isoform 4 (UniProt Q5VIR6)
inactive: IRAK-1-4 Inhibitor I -0.035 | ibrutinib 0.011 | [1] -0.046 | ralimetinib -0.022 | [2] -0.101 | [3] -0.142 | [4] 0.095 | pinometostat 0.076 | [6] 0.036

WASH2P (UniProt Q6VEQ5)
active: [3] -0.234
inactive: IRAK-1-4 Inhibitor I 0.001 | ibrutinib -0.049 | [1] 0.052 | ralimetinib 0.022 | [2] 0.048 | [4] 0.025 | pinometostat -0.016 | [6] 0.026

WASHC5 (UniProt Q12768)
inactive: IRAK-1-4 Inhibitor I -0.042 | ibrutinib 0.007 | [1] -0.024 | ralimetinib 0.072 | [2] -0.116 | [4] 0.003 | pinometostat 0.067 | [6] -0.014
active: [3] -0.277

WDR18 (UniProt Q9BV38)
active: [6] -0.962
inactive: IRAK-1-4 Inhibitor I -0.005 | ibrutinib -0.03 | [1] -0.007 | ralimetinib 0.064 | [2] 0.025 | [3] 0.008 | [4] -0.102 | pinometostat 0.028

2 successive records out of the list so far, for reference:
WBP4 (UniProt O75554)
inactive: IRAK-1-4 Inhibitor I 0.082 | ibrutinib -0.001 | [1] 0.033 | ralimetinib -0.057 | [2] -0.001 | [3] 0.098 | [4] 0.041 | pinometostat -0.06 | [6] 0.02

VPS8 (UniProt Q8N3P4)
inactive: IRAK-1-4 Inhibitor I -0.085 | ibrutinib -0.117 | [1] -0.004 | ralimetinib 0.088 | [2] -0.079 | [3] -0.254 | [4] 0.052 | pinometostat 0.039 | [6] 0.015

(next part)

WDR11 (UniProt Q9BZH6)
inactive: IRAK-1-4 Inhibitor I 0.009 | ibrutinib -0.112 | [1] -0.01 | ralimetinib -0.068 | [2] -0.018 | [3] -0.056 | [4] -0.047 | pinometostat 0 | [6] 0.065

VPS18 (UniProt Q9P253)
inactive: IRAK-1-4 Inhibitor I -0.02 | ibrutinib -0.029 | [1] -0.029 | ralimetinib -0.037 | [2] -0.024 | [3] -0.319 | [4] 0.053 | pinometostat 0.055 | [6] 0.059

VTI1B (UniProt Q9UEU0)
inactive: IRAK-1-4 Inhibitor I -0.074 | ibrutinib 0.027 | [1] -0.033 | ralimetinib -0.081 | [2] 0.08 | [4] 0.002 | pinometostat -0.057 | [6] 0.012
active: [3] -0.261

VPS35L (UniProt Q7Z3J2)
inactive: IRAK-1-4 Inhibitor I -0.012 | ibrutinib -0.006 | [1] -0.028 | ralimetinib 0.05 | [2] -0.097 | [3] -0.046 | [4] 0.036 | pinometostat 0.043 | [6] 0.024

WDR37 isoform 2 (UniProt Q9Y2I8)
active: [1] -0.39
inactive: IRAK-1-4 Inhibitor I 0.144 | ibrutinib -0.06 | ralimetinib -0.063 | [2] -0.118 | [3] -0.011 | [4] 0.126 | pinometostat -0.029 | [6] 0.144

WDR61 (UniProt Q9GZS3)
inactive: IRAK-1-4 Inhibitor I 0.037 | ibrutinib -0.015 | [1] -0.057 | ralimetinib -0.049 | [2] 0.008 | [3] -0.016 | [4] -0.009 | pinometostat 0.028 | [6] 0.004
